The source of these data is article PMC7958448, “Bepridil is potent against SARS-CoV-2 in vitro” (Proceedings of the National Academy of Sciences of the …, 2021).

Molecules are shown by their SMILES.

In test [1] the test system is SARS-CoV-2 in Vero E6 cells. In kind it is cell-based.
The target in test [2] is SARS-CoV-2 main protease (Mpro) (Severe acute respiratory syndrome coronavirus 2, UniProt P0DTD1). Nature of the test: biochemical.
The test system of test [3] is SARS-CoV-2 in A549/ACE2 cells. In kind it is cell-based.

Take `CC(C)(C)c1ccc(C(=O)CCCN2CCC(OC(c3ccccc3)c3ccccc3)CC2)cc1` [Ebastine]: the “SARS-CoV-2 induced CPE at all tested concentrations” value in test [1] was “CPE was clearly observable”. Moreover, in test [2], the Hill slope (as a rule, a measure of the steepness of the concentration-response curve) was 1.5 ± 0.2 and inhibition was half-maximal at 57 ± 12 µM (IC50). Moreover, the “SARS-CoV-2 induced CPE at all tested concentrations” value in test [3] is listed as “CPE was clearly observable”.

Take `Clc1ccc(CO/N=C(\Cn2ccnc2)c2ccc(Cl)cc2Cl)c(Cl)c1` [Oxiconazole]: in test [2], the Hill slope is on record as 3.8 ± 0.4 and the IC50 (commonly the midpoint of a concentration-inhibition curve) is 99 ± 6 µM.
